Measured values taken from the supplement of paper PMC12819154, “High-throughput peptide-centric local stability assay extends protein–ligand identification to membrane proteins, tissues and bacteria” (Nature Structural & Molecular Biology, 2025).
The other results are listed elsewhere or left out. Most values lie at the level of the controls, where differences are scatter.

Chains of the proteins cited; added tags and fusions are not shown. Lines headed by an entry give the natural chain unless they say otherwise; changes in a name come on top.
UniProt Q9CPP6: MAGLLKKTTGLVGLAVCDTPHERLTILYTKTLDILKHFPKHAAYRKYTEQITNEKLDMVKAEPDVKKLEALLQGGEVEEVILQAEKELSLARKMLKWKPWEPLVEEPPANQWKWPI
UniProt Q9CQ10: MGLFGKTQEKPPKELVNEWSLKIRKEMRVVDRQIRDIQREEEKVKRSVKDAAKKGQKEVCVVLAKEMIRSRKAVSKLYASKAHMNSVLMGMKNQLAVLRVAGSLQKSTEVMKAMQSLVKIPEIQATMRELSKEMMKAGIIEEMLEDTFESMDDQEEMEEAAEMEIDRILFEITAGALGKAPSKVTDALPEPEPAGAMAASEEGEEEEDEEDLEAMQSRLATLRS
UniProt Q9CX86: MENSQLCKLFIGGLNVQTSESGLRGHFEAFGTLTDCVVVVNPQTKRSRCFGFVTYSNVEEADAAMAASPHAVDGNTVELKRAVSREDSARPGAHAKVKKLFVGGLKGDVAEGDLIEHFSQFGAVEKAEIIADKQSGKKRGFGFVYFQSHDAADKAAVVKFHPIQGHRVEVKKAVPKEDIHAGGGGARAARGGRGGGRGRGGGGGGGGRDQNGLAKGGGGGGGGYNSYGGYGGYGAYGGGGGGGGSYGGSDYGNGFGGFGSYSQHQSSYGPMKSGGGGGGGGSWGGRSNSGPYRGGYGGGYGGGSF
UniProt Q9CQ88: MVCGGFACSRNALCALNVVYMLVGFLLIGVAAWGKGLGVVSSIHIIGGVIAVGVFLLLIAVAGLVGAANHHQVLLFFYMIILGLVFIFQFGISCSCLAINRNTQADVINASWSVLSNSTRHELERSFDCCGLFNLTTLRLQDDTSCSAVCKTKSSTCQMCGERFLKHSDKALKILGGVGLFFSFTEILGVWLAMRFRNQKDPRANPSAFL
UniProt Q99LI8, whole entry: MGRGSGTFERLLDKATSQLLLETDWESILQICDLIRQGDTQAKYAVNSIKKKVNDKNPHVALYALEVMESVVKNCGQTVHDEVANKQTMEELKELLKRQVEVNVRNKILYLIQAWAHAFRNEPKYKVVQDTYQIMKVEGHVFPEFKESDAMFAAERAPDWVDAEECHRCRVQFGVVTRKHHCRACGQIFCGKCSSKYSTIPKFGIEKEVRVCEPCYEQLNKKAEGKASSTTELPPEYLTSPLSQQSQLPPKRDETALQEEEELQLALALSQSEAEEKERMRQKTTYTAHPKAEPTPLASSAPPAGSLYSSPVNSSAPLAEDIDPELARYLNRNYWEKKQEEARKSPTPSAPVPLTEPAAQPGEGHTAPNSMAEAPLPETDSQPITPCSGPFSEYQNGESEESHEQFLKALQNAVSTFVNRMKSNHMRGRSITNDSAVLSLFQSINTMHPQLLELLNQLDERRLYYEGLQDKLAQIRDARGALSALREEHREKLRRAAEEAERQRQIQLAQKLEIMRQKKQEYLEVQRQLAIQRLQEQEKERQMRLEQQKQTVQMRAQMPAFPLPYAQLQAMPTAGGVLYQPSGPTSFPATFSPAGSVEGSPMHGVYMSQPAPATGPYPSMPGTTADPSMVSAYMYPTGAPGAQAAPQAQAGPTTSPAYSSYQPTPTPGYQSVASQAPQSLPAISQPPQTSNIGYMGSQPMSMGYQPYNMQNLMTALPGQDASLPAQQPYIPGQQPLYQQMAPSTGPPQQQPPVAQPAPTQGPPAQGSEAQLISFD
UniProt Q99PL5: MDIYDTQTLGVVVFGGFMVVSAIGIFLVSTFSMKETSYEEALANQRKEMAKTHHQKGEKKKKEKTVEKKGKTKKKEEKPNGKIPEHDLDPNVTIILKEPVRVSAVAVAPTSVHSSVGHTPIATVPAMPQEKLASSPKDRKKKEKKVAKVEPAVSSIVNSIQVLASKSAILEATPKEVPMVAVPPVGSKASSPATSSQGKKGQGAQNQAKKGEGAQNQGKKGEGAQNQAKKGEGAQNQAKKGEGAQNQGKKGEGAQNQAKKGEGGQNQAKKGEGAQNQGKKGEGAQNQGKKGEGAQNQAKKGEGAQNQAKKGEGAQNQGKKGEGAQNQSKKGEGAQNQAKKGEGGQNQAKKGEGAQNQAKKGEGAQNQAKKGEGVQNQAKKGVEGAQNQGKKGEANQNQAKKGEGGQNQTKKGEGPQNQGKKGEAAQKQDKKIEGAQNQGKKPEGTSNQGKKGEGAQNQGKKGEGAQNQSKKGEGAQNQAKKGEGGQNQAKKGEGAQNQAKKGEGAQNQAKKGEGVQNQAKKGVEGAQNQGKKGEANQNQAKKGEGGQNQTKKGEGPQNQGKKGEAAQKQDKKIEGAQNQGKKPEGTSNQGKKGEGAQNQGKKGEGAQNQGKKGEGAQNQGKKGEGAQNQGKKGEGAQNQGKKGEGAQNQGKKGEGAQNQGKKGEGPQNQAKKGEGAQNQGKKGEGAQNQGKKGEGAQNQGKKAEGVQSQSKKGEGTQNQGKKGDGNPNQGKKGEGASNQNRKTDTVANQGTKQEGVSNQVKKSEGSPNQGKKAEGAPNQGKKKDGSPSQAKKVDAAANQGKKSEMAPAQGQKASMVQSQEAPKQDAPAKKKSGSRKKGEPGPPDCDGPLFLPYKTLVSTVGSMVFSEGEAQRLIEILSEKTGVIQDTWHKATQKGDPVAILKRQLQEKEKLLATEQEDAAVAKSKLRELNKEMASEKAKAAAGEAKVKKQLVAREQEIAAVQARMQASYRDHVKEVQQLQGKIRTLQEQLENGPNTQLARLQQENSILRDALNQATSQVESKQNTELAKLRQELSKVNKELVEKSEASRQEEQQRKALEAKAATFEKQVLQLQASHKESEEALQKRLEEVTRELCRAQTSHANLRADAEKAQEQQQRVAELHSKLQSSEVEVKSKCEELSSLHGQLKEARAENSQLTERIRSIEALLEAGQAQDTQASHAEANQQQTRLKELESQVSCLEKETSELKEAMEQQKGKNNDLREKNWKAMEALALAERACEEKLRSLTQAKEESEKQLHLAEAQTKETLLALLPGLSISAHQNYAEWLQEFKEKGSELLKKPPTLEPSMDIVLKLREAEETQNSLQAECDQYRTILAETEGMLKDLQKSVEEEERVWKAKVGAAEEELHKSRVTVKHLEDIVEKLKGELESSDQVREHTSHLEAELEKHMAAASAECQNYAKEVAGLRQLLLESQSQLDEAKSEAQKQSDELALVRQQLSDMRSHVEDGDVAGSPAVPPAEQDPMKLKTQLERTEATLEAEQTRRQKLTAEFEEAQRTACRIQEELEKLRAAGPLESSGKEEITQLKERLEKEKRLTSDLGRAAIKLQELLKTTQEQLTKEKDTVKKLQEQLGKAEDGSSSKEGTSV
UniProt Q99MW1: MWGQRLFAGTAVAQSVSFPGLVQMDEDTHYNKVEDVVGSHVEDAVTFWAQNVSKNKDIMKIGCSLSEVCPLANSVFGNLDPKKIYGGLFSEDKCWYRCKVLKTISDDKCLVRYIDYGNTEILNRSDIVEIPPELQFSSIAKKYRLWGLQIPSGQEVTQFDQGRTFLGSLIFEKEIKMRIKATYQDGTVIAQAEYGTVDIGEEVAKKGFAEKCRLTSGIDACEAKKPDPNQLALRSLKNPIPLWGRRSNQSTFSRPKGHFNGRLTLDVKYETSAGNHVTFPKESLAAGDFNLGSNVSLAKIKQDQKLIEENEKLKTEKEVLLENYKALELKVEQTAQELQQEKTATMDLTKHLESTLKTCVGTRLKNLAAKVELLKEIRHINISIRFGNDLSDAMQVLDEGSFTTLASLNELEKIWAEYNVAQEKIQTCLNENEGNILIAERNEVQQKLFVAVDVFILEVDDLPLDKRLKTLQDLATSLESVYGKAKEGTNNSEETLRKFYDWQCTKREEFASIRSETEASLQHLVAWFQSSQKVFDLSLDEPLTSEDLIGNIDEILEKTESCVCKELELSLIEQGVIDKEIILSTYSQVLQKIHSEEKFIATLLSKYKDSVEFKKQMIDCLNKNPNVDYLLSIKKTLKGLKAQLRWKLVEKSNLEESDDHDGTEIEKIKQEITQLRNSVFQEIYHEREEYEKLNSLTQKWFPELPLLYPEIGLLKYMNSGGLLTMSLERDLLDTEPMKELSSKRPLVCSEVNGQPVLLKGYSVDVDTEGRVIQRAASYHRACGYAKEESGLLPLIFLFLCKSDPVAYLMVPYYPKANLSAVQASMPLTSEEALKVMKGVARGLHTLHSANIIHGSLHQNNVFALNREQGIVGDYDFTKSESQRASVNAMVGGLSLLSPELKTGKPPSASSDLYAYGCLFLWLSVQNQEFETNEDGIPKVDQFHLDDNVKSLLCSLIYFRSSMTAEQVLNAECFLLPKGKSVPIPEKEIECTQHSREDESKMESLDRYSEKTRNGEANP
UniProt Q99P31: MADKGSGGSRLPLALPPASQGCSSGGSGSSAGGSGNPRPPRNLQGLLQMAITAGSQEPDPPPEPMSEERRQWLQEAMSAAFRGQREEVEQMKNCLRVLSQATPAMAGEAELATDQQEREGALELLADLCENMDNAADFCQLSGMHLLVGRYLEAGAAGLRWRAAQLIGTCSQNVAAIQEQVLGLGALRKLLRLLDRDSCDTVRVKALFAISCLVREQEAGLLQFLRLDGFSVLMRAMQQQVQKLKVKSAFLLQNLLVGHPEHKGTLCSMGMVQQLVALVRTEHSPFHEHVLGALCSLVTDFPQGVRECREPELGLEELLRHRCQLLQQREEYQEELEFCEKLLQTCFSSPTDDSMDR
UniProt Q99MP8: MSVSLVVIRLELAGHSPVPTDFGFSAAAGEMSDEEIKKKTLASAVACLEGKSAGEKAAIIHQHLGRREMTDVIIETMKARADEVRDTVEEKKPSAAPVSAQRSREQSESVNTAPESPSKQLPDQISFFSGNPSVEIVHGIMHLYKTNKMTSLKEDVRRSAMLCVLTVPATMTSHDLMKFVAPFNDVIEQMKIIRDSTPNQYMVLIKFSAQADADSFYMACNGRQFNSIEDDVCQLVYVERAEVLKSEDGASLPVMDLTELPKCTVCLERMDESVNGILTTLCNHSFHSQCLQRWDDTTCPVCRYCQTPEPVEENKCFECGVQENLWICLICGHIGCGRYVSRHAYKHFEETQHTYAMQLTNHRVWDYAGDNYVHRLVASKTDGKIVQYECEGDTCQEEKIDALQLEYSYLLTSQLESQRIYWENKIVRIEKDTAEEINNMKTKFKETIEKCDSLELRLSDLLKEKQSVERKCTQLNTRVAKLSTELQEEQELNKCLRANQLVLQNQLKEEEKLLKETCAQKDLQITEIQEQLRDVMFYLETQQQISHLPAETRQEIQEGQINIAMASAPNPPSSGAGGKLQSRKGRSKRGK
UniProt Q9CWX2: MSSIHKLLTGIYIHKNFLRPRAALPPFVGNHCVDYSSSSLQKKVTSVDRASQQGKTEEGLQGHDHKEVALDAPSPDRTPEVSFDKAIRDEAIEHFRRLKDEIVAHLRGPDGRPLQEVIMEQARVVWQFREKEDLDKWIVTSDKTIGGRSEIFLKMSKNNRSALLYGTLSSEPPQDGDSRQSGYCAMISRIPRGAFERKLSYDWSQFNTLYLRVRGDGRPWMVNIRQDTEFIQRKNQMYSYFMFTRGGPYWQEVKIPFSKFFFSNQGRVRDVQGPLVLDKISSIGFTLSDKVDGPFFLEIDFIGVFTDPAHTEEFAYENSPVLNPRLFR
UniProt Q9CRC9: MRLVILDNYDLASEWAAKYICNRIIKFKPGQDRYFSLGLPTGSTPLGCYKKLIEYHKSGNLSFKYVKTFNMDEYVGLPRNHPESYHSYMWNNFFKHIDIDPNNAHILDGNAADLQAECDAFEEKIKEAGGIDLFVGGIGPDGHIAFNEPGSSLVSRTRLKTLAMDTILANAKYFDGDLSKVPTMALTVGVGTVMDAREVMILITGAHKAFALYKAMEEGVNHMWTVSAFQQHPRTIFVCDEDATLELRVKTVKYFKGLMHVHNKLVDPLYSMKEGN
UniProt Q99KR3: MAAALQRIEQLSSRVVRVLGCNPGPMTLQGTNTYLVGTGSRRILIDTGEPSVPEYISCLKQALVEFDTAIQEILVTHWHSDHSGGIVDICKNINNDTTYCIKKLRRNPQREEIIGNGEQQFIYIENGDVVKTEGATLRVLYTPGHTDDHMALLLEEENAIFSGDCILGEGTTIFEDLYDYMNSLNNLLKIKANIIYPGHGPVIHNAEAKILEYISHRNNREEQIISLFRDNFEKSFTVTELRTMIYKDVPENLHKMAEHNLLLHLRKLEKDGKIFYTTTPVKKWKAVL
UniProt Q9CWS0: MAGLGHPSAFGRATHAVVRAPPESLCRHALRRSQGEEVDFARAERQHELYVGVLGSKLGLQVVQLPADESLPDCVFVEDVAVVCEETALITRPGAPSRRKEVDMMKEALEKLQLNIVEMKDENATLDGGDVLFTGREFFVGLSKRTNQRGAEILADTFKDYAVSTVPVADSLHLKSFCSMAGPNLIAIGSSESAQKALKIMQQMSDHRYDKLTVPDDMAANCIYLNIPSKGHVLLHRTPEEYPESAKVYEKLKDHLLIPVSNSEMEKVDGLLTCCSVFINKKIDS
UniProt Q9CQC7: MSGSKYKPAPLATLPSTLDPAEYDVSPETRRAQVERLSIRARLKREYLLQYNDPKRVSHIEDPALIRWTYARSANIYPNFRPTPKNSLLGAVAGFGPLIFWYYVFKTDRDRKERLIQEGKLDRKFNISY

These targets were tested with CN[C@@H]1C[C@H]2O[C@@](C)([C@@H]1OC)n1c3ccccc3c3c4c(c5c6ccccc6n2c5c31)C(=O)NC4 [staurosporine] (assay: log2 fold change of pooled soluble protein (PISA), ligand vs vehicle (log2 ratio); higher = more thermally stabilized). Details: ligand concentration: 20 uM; assay format: PISA pool 52.9/55.5/58.6 C.
For UniProt Q9CPP6, the “log2 fold change of pooled soluble protein” value (shortened to “log2 fold change”) was 0.0801.
UniProt Q9CPX6 was tested, and the “log2 fold change” value was 0.0168.
In the case of UniProt Q99L27, the “log2 fold change” value is reported as -0.0377.
In the case of UniProt Q9CX66, the “log2 fold change” value is reported as -0.074.
With UniProt Q9CQ10 the “log2 fold change” value was 0.00952.
UniProt Q9CX86 was tested, and the “log2 fold change” value was 0.266.
For UniProt Q9CQN6, the “log2 fold change” value was -0.121.
UniProt Q9CQ88 was tested, and the “log2 fold change” value was 0.209.
In the case of UniProt Q9CQT1, the “log2 fold change” value is reported as -0.0167.
UniProt Q9CXF0 was tested, and the “log2 fold change” value was 0.0356.
With UniProt Q99LI8 the “log2 fold change” value was -0.0762.
For UniProt Q99JY8, the “log2 fold change” value was 0.0198.
UniProt Q9CQ22 was tested, and the “log2 fold change” value was -0.142.
For UniProt Q99KW3, the “log2 fold change” value was -0.0107.
With UniProt Q99PL5 the “log2 fold change” value was -0.0494.
UniProt Q9CR50 was tested, and the “log2 fold change” value was 0.0495.
In the case of UniProt Q99P72, the “log2 fold change” value is reported as 0.232.
With UniProt Q99MW1 the “log2 fold change” value was 0.143.
In the case of UniProt Q99P31, the “log2 fold change” value is reported as -0.00356.
With UniProt Q9CR21 the “log2 fold change” value was -0.0554.
With UniProt Q99MP8 the “log2 fold change” value was 0.0492.
UniProt Q9CR27 was tested, and the “log2 fold change” value was -0.166.
With UniProt Q9CR57 the “log2 fold change” value was -0.0562.
With UniProt Q9CQJ8 the “log2 fold change” value was -0.297.
UniProt Q99KC8 was tested, and the “log2 fold change” value was 0.0243.
For UniProt Q9CWX2, the “log2 fold change” value was 0.0669.
For UniProt Q9CRC9, the “log2 fold change” value was 0.129.
With UniProt Q99KU6 the “log2 fold change” value was -0.102.
With UniProt Q9CQS4 the “log2 fold change” value was 0.178.
With UniProt Q9CQV7 the “log2 fold change” value was -0.109.
With UniProt Q99LB7 the “log2 fold change” value was -0.0745.
In the case of UniProt Q99KR3, the “log2 fold change” value is reported as -0.0748.
In the case of UniProt Q9CWS0, the “log2 fold change” value is reported as -0.0186.
With UniProt Q99LC2 the “log2 fold change” value was -0.216.
In the case of UniProt Q9CQC7, the “log2 fold change” value is reported as -0.0696.
In the case of UniProt Q9CX80, the “log2 fold change” value is reported as -0.0604.
